Drawing on US20240360165A1, “INHIBITORS OF CYCLIN DEPENDENT KINASE 7 (CDK7)” (Syros Pharmaceuticals, Inc., priority 2016, published 2024), this text covers IC50 for 9 compounds.

Amino acid sequences for entries named in this document (tags omitted). Residues count along the entry.
UniProt P50613, whole entry: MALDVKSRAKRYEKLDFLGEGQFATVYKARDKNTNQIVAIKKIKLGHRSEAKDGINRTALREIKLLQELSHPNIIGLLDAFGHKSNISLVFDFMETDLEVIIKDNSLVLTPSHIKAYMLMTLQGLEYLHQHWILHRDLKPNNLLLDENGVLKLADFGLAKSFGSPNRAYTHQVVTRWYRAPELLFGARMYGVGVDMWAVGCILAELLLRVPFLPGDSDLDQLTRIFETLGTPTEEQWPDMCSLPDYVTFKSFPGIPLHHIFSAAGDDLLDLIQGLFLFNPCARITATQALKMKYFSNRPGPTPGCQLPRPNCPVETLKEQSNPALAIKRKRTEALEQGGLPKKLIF
UniProt P50750, whole entry: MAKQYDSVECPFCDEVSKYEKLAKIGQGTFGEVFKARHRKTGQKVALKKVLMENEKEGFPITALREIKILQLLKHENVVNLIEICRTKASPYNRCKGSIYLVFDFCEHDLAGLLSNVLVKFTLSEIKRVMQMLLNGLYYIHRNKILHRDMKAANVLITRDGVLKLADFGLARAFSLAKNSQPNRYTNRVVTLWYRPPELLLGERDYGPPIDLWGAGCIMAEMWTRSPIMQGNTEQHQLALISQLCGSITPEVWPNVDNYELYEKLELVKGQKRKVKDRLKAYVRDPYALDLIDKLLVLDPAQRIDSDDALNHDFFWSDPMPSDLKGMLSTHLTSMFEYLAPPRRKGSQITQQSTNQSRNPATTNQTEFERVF
UniProt Q9NYV4, 686-1082 limits assumed: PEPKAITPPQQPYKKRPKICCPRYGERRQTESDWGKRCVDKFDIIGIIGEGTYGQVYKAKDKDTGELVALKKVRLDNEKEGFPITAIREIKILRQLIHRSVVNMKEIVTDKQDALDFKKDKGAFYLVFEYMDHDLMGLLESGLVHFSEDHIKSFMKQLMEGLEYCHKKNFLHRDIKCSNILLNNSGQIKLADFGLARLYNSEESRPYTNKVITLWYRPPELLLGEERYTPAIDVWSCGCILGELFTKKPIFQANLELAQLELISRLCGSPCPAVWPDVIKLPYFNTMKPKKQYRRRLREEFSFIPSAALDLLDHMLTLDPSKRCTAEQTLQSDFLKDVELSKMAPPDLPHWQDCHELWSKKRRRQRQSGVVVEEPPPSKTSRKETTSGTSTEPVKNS
UniProt O75909, whole entry partner: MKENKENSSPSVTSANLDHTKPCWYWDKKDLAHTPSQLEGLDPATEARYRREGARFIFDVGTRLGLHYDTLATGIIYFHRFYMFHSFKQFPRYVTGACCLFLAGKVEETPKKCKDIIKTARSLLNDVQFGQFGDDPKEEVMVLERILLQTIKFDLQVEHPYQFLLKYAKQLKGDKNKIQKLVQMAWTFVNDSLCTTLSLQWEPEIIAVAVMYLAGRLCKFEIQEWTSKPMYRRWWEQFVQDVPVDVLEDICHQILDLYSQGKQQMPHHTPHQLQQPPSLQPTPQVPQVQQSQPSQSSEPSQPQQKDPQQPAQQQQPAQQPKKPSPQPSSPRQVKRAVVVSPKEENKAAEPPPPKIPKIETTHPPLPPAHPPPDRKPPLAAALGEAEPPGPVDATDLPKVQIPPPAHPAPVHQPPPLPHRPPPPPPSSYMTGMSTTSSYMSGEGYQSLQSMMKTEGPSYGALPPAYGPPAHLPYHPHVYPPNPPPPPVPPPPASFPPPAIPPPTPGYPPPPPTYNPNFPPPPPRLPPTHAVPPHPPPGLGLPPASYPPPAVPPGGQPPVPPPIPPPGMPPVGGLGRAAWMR
UniProt P51948, whole entry partner: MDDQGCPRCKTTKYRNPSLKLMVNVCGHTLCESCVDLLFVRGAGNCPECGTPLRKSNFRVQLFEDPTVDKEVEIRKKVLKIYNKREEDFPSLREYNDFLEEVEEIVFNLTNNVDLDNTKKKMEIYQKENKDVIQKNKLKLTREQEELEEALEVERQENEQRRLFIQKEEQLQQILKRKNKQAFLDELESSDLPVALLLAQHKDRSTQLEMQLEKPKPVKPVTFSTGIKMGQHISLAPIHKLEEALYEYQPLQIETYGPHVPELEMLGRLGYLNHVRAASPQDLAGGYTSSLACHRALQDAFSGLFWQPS
UniProt P51946, whole entry partner: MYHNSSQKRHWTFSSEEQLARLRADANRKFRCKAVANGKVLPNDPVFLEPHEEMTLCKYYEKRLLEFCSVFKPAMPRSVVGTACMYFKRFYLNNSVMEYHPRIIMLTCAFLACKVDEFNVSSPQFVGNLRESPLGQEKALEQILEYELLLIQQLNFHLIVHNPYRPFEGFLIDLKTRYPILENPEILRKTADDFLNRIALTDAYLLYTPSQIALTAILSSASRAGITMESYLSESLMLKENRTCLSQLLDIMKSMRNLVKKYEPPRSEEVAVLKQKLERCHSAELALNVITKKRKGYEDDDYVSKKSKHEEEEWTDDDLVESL
UniProt O60563, whole entry partner: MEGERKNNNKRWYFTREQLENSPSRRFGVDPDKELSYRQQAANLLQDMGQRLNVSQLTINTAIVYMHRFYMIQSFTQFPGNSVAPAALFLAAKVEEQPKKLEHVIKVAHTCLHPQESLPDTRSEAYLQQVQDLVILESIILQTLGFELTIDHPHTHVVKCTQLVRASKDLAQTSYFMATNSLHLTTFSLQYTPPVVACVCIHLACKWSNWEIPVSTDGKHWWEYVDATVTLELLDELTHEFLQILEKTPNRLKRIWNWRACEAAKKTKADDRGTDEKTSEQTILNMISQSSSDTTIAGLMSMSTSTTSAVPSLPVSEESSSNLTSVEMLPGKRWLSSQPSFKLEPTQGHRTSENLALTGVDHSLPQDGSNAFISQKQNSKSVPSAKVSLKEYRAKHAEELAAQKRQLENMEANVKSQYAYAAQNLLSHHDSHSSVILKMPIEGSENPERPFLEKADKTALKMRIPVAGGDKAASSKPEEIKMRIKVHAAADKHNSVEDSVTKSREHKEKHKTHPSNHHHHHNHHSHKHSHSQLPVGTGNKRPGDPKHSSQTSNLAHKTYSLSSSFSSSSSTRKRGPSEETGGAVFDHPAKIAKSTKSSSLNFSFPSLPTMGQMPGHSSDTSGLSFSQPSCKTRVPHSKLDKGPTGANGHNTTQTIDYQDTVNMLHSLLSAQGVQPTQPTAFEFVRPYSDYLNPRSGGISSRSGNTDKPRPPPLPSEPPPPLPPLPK

Where two headings read alike, the source gives them in different places. The match of structure and compound is tentative.

Experiment [1] deals with CDK7/Cyclin H/MAT1 complex (Homo sapiens, UniProt P50613). The experiment can be described thus: CDK7 inhibition assay (Caliper/LabChip EZ Reader kinase assay). The following applies: read-out: CDK7, Table 1, CDK7/Cyclin H/MAT1 6 nM, ATP 2 mM, 35 min at 27° C.
For experiment [2], the target named is CDK9/Cyclin T1 complex (Homo sapiens, UniProt P50750). The experiment can be described thus: CDK9 inhibition assay (Caliper/LabChip EZ Reader kinase assay). To be noted: read-out: CDK9, Table 1, CDK9/Cyclin T1 8 nM, ATP 2 mM, 15 min at 27° C.
The target of experiment [3] is CDK12 (aa686-1082)/Cyclin K complex (Homo sapiens, UniProt Q9NYV4). Description: CDK12 inhibition assay (Caliper/LabChip EZ Reader kinase assay). The following applies: read-out: CDK12, Table 1, CDK12 (aa686-1082)/Cyclin K 50 nM, ATP 2 mM, 3 hr at 27° C.
For experiment [4], the system named is A673 cells. The experiment can be described thus: Inhibition of proliferation of A673 cells (CyQUANT, 72 hour).
In experiment [5] the target is CDK2/Cyclin E1 complex (Homo sapiens, UniProt P24941). The experiment can be described thus: CDK2 inhibition assay (Caliper/LabChip EZ Reader kinase assay). To be noted: read-out: CDK2, Table 1, CDK2/Cyclin E1 0.5 nM, ATP 2 mM, 35 min at 27° C.
Experiment [6] concerns HCC70 cells. The experiment can be described thus: Inhibition of proliferation of HCC70 cells (CyQUANT Direct Cell Proliferation Assay, 72 hour). To be noted: read-out: Inhibition of Proliferation of HCC70 Cells (calculated IC50).
[7] abbreviates: read-out: Inhibition of Proliferation of A673 Cells (calculated IC50).

For `O=S1(=O)CCN(c2cccc3c(-c4nc(N[C@H]5CCCNC5)ncc4Cl)c[nH]c23)CC1` [Compound 196, 5-chloro-4-[7-(1,1-dioxo-1,4-thiazinan-4-yl)-1H-indol-3-yl]-N-[(3S)-3-piperidyl]pyrimidin-2-amine], the IC50 in experiment [1] was in the range of 0.02 to 0.2 µM; in experiment [2], 0.2 to 5 µM; in experiment [3], 0.2 to 5 µM.

Consider `O=C(c1ccc2c(-c3nc(N[C@H]4CCCNC4)ncc3C(F)(F)F)c[nH]c2c1)N1CCCC1` [Compound 278, [3-[2-[[(3S)-3-piperidyl]amino]-5-(trifluoromethyl)pyrimidin-4-yl]-1H-indol-6-yl]-Pyrrolidin-1-yl-methanone], for which the IC50 in experiment [1] was < 0.02 µM; in experiment [2] it was 0.2 to 5 µM; in experiment [3], 0.2 to 5 µM; in experiment [4] (setting [7]), < 0.02 µM.

Consider `FC(F)n1ccc(-c2ccc3c(-c4nc(N[C@H]5CCCNC5)ncc4C(F)(F)F)c[nH]c3c2)n1` [Compound 289, 4-[6-[1-(difluoromethyl)pyrazol-3-yl]-1H-indol-3-yl]-N-[(3S)-3-piperidyl]-5-(trifluoromethyl) pyrimidin-2-amine], for which the IC50 lay in the range of 0.02 to 0.2 µM in experiment [1], 0.2 to 5 µM in experiment [2] and 0.02 to 0.2 µM in experiment [3].

For `FC(F)n1cc(-c2ccc3c(-c4nc(N[C@H]5CCCNC5)ncc4C(F)(F)F)c[nH]c3c2)cn1` [Compound 290, 4-[6-[1-(difluoromethyl)pyrazol-4-yl]-1H-indol-3-yl]-N-[(3S)-3-piperidyl]-5-(trifluoromethyl) pyrimidin-2-amine], the IC50 in experiment [1] is 0.02 to 0.2 µM; in experiment [2] it was > 5 µM; in experiment [3] it was 0.2 to 5 µM; in experiment [5], > 5 µM.

Turning to `O=C1CCN(C(=O)c2ccc3c(-c4nc(N[C@H]5CCCNC5)ncc4C(F)(F)F)c[nH]c3c2)C1` [Compound 302, 1-[3-[2-[[(3S)-3-piperidyl]amino]-5-(trifluoromethyl)pyrimidin-4-yl]-1H-indole-6-carbonyl] pyrrolidin-3-one], the IC50 was < 0.02 µM in experiment [1]; 0.2 to 5 µM in experiment [2]; 0.02 to 0.2 µM in experiment [3]; < 0.02 µM in experiment [4] (setting [7]); < 0.1 µM in experiment [6].

Take `CC(C)S(=O)(=O)c1ccc2c(-c3nc(N[C@H]4CCCNC4)ncc3C(F)(F)F)c[nH]c2c1` [Compound 346, 4-(6-isopropylsulfonyl-1H-indol-3-yl)-N-[(3S)-3-piperidyl]-5-(trifluoromethyl) pyrimidin-2-amine]: the IC50 in experiment [1] was < 0.02 µM; in experiment [2], 0.2 to 5 µM; in experiment [3] it was 0.02 to 0.2 µM; in experiment [4] (setting [7]) it was 0.02 to 0.2 µM; in experiment [6], < 0.1 µM.

As to `CN1CCC[C@H](Nc2ncc(C(F)(F)F)c(-c3c[nH]c4cc(S(C)(=O)=O)ccc34)n2)C1` [Compound 364, N-[(3S)-1-methyl-3-piperidyl]-4-(6-methylsulfonyl-1H-indol-3-yl)-5-(trifluoromethyl)pyrimidin-2-amine], the IC50 was < 0.02 µM in experiment [1]; 0.2 to 5 µM in experiment [2]; 0.02 to 0.2 µM in experiment [3]; 0.2 to 5 µM in experiment [5]; < 0.02 µM in experiment [4] (setting [7]).

For the compound `O=S(=O)(CF)c1ccc2c(-c3nc(N[C@H]4CCCNC4)ncc3C(F)(F)F)c[nH]c2c1` [Compound 365, 4-[6-(fluoromethylsulfonyl)-1H-indol-3-yl]-N-[(3S)-3-piperidyl]-5-(trifluoromethyl)pyrimidin-2-amine], the IC50 was 0.02 to 0.2 µM in experiment [1]; > 5 µM in experiment [2]; > 5 µM in experiment [3]; > 5 µM in experiment [5]; 0.2 to 5 µM in experiment [4] (setting [7]).

Consider `O=S(=O)(c1ccc2c(-c3nc(N[C@H]4CCCNC4)ncc3C(F)(F)F)c[nH]c2c1)C(F)F` [Compound 375, 4-[6-(difluoromethylsulfonyl)-1H-indol-3-yl]-N-[(3S)-3-piperidyl]-5-(trifluoromethyl)pyrimidin-2-amine], for which the IC50 is 0.2 to 5 µM in experiment [1] (tested form: formate); 0.2 to 5 µM in experiment [2] (tested form: formate); > 5 µM in experiment [3] (tested form: formate); > 5 µM in experiment [5] (tested form: formate); 0.2 to 5 µM in experiment [4] (read-out: Inhibition of Proliferation of A673 Cells (calculated IC50), tested form: formate).
